The values below come from PMC7819943, “Rice protein-binding microarrays: a tool to detect cis-acting elements near promoter regions in rice”.

The other results are listed elsewhere or left out.

In the test the target is T1, OsSMF1 (Oryza sativa, UniProt Q6ZLB0 1-436).
T1 sequence: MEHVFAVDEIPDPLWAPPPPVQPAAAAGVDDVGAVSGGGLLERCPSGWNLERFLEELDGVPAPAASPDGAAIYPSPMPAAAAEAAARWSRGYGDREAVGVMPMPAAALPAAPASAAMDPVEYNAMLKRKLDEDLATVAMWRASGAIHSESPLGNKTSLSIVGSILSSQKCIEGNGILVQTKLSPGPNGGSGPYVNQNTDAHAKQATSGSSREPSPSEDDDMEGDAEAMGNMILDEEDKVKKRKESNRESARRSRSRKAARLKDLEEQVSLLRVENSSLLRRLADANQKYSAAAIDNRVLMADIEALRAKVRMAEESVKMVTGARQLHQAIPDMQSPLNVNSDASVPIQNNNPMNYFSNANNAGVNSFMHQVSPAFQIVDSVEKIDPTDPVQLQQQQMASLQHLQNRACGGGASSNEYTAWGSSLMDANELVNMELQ
The experiment in a line: protein-binding microarray (RPBM); PBS, 2% BSA, 51.3 ng/ul salmon testes DNA, 50 uM zinc acetate, 200 nM TF, 25 C, 1 h; high values mean tight binding. Particulars: protein: recombinant; tags: N-terminal polyhistidine and DsRed monomer fusion (pET32a); chain copies: 2; label: CyDye5-dUTP incorporated in the synthesized complementary strand; 3' TTTTT single-stranded linker to array surface; dsDNA, one strand shown. In short, it runs like this:
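Using Ni–NTA, transcription factors fused N-terminally to polyhistidine and DsRed were purified after expression in E. coli BL21-CodonPlus. These were incubated at 200 nM with a blocked, double-stranded custom Agilent array for 1 h at 25 °C in a buffer containing 50 µM zinc acetate, and the array was washed. The binding signal is per-feature fluorescence intensity (arbitrary units) on an Axon 4000B scanner.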
Regarding “TGATATTCGGCGAGCACATGTGACATGTGCATGTTCTTATCGGAGTCACCTAGTGCAG”, the binding signal is 4650 fluorescence intensity (a.u.).

In the case of “GTTCATAGTCCAAAATACTGTCAAGTAAATTCAAGTGATGCGGAGTCACCTAGTGCAG”, the binding signal was 3160 fluorescence intensity (a.u.).

With “ACAGAGATCTGTTTCGAGAAGAGGAGACACGTGTCAGCGTCGGAGTCACCTAGTGCAG”, the binding signal was 23800 fluorescence intensity (a.u.). Consider “CCACCGGCAGTGACGTCGACCCTGACGAGGACGCCGCCGCCGGAGTCACCTAGTGCAG”, for which the binding signal is 6340 fluorescence intensity (a.u.). Consider “TATACGGACGTAGTACGAGTACAAATACGTCACAGGCTTGCGGAGTCACCTAGTGCAG”, for which the binding signal is 5520 fluorescence intensity (a.u.). For “CACTTACAGCTGGACCCTATGATGCATGCATTGCATACCACGGAGTCACCTAGTGCAG”, the binding signal was 3580 fluorescence intensity (a.u.). For the sequence “GCCCGGACCATCACACCCAATCGTGGCCGTCCACACCTCCCGGAGTCACCTAGTGCAG”, the binding signal was 4060 fluorescence intensity (a.u.). Take “AATAGAATTTTAAATCGAGCCTATCTCTCGTTGACTCAGACGGAGTCACCTAGTGCAG”: the binding signal was 4970 fluorescence intensity (a.u.). To “TCCTCCGCACTCAGCCGTTGCACTCCACTCCATCCGCGCTCGGAGTCACCTAGTGCAG” belongs 4130 fluorescence intensity (a.u.). For the sequence “TTAGATCCAGGGGTGTAAAGTTTTGGCGTGTCACATCAGGCGGAGTCACCTAGTGCAG”, the binding signal is 4330 fluorescence intensity (a.u.). To “AATAGCTCTCTCCTCAGTCTCTCACGGCCTCATCACCACCCGGAGTCACCTAGTGCAG” belongs 3170 fluorescence intensity (a.u.); to “GACTGCGATAGGCCTATATAAATTATCCGAGTACTAATACCGGAGTCACCTAGTGCAG”, 38400 fluorescence intensity (a.u.). To “TGCTGGTCGTCCTCGCCGGAATGGTTCGATTATTGGTGGACGGAGTCACCTAGTGCAG” belongs 3280 fluorescence intensity (a.u.). As to “CAGTGGGTTGTGGGTGTGGTTGGTCGGCCAGCGCTGGAGCCGGAGTCACCTAGTGCAG”, the binding signal is 3610 fluorescence intensity (a.u.). With “GGAATCCAGATCTCACCCACCCCACCCCACCCACACGACGCGGAGTCACCTAGTGCAG”, the binding signal is 3970 fluorescence intensity (a.u.). Regarding “TTAATAATAGCCATGTGCGTCATTAGACGGTAGTACGATCCGGAGTCACCTAGTGCAG”, the binding signal is 5910 fluorescence intensity (a.u.). On to “ATCTCTTATTTTCCATACGTATGTTTCCCAAACTACTAAACGGAGTCACCTAGTGCAG”, for which the binding signal is 5600 fluorescence intensity (a.u.). Consider “GCATCCTCACGTGCATGTCTAACATAATATTTTGATCGATCGGAGTCACCTAGTGCAG”, for which the binding signal is 3210 fluorescence intensity (a.u.). For “GTGAACTCGAGCCTAGATAGGAGAACTCACTTGAGGTTTGCGGAGTCACCTAGTGCAG”, the binding signal is 24800 fluorescence intensity (a.u.).

Take “GTAGTTTGTGTGCGTGTTGTCGGCGTATGCATTTTAACTACGGAGTCACCTAGTGCAG”: the binding signal is 3440 fluorescence intensity (a.u.). As for “TTCATGTCGCAGTCCGATTCACACGCCGACCACGACGAGCCGGAGTCACCTAGTGCAG”, the binding signal is 3200 fluorescence intensity (a.u.). Take “TTCCTCCCCTTTCCCTCTCTGTCGGCGGCGTCAGCAGGCGCGGAGTCACCTAGTGCAG”: the binding signal is 4580 fluorescence intensity (a.u.). Turning to “CGGCCTCTTGCCCGTGAACGACAGCATCAGCACCGGCGCCCGGAGTCACCTAGTGCAG”, the binding signal is 3300 fluorescence intensity (a.u.).

Consider “GCTGCTCTCTCTCTCTCTCTCTCCCATCTCGTCCTCGCTTCGGAGTCACCTAGTGCAG”, for which the binding signal was 19400 fluorescence intensity (a.u.). On to “CTGCGATCAAAATCATCGTGGCAGTAAGTCAAGATGCCTGCGGAGTCACCTAGTGCAG”, for which the binding signal was 3250 fluorescence intensity (a.u.).

With “AGGAAAATCTTAGGTGAGTGATTGTACATCAATGTTGTCACGGAGTCACCTAGTGCAG”, the binding signal is 3160 fluorescence intensity (a.u.). In the case of “TTCTTCCCTTCACATAGGAATTGGATGATGTGGAGACTTTCGGAGTCACCTAGTGCAG”, the binding signal was 7630 fluorescence intensity (a.u.). With “GCATCATCTTCCTTGCAACCACGTGGCTTGCTGACGGGTTCGGAGTCACCTAGTGCAG”, the binding signal was 7760 fluorescence intensity (a.u.). To “CCCTCCGTCCCAAAATAAGTGTAGTTTTGTACTATTCACGCGGAGTCACCTAGTGCAG” belongs 17100 fluorescence intensity (a.u.); to “CAGCGACGTTATTGACGATAATACAGTCTACAGATTCCAGCGGAGTCACCTAGTGCAG”, 3390 fluorescence intensity (a.u.); to “GCCGCCGCCGCCGCCGCCGCCGCCGCGTCCGCTTCGACTCCGGAGTCACCTAGTGCAG”, 3190 fluorescence intensity (a.u.). As to “AAAGGCCTACAAATACCATGCACCAATGCAAAATATAGACCGGAGTCACCTAGTGCAG”, the binding signal is 36800 fluorescence intensity (a.u.). Turning to “CCACCACCACCACCACCATCATCTCCTCCTCCTCCGACGCCGGAGTCACCTAGTGCAG”, the binding signal is 3480 fluorescence intensity (a.u.). For the sequence “CAATCCAGATCAACCAGCAAATCATCCTCACATGCAAGCTCGGAGTCACCTAGTGCAG”, the binding signal is 14800 fluorescence intensity (a.u.). For “CGTCTTCCCTTATCAGTTTAAACTGACGTAGATACGTACGCGGAGTCACCTAGTGCAG”, the binding signal was 4710 fluorescence intensity (a.u.). Regarding “GATGAGCCTCGTCTACGATCCCGTCAGCAACGACTATCGGCGGAGTCACCTAGTGCAG”, the binding signal was 5680 fluorescence intensity (a.u.). With “TTTTATTGTTAACTAGGCATGATTTTACGTGGAATCTTGTCGGAGTCACCTAGTGCAG”, the binding signal was 4390 fluorescence intensity (a.u.).

As for “CTTGGTCATTTCTCATTTGTGCGTCACGGAGTGAGCAGTGCGGAGTCACCTAGTGCAG”, the binding signal was 4370 fluorescence intensity (a.u.). In the case of “ACCGAGTCCACGGAGCAGTGAGAGAGCCAGGCAGCCAGTGCGGAGTCACCTAGTGCAG”, the binding signal is 3960 fluorescence intensity (a.u.).

On to “CCGCCTGCCAAAGCCTCCTGCGCCTCCGTCACCGACGCCGCGGAGTCACCTAGTGCAG”, for which the binding signal was 4700 fluorescence intensity (a.u.).

For the sequence “ACTTAGTTTTCTTGTTTTGGAATTTTCTTAACTTTGTATTCGGAGTCACCTAGTGCAG”, the binding signal is 3180 fluorescence intensity (a.u.).

Regarding “CGACAACGATGGCTGCCTTGCCAAGTCATTATACATTAGACGGAGTCACCTAGTGCAG”, the binding signal is 5880 fluorescence intensity (a.u.).
